The test in a line: qHTS Assay for Modulators of Lamin A Splicing. The note with it: HeLa LMNA splicing GFP/RFP minigene ratio, 48 h. Summed up: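 Read-out is the ratio of GFP to DsRed2 object intensity, acquired by 488 nm laser-scanning cytometry on HeLa lamin A-EGFP minigene reporter cells. Compound incubation 48 hrs at 37 °C in Opti-MEM with 2% FBS; DMSO 0.5% final.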
In general terms: qHTS replaces the single test concentration by a dilution series.

Setting [1] is: measured here: RFP viability control channel.
Setting [2] is: measured here: GFP splicing reporter channel.

The source of these data is PubChem BioAssay AID1487 (National Center for Advancing Translational Sciences (NCATS), 2009).

Structures are written as SMILES. Some of the results follow. Further columns of the screen follow, without active or inactive calls. The list favours compounds with an active or inconclusive main result. Words in brackets tell the shape of the fitted curve; partial curves, single points and poor fits give uncertain potencies.

The term AC50 denotes the concentration at which the activity in the assay is half-maximal. For `CCOc1ccc(NC(=S)NN(C)C(=S)Nc2ccc(OCC)cc2)cc1`, the AC50 under setting [1] was 12.6 µM [rising, single point]. As to `COc1ccc(-n2ncc3c(NC(C)C)ncnc32)cc1`, the half-maximal activity concentration (AC50) under setting [1] was 17.8 µM [rising, single point]. As to `O=[N+]([O-])c1ccc(NC2CCCC2)cc1`, the concentration at half-maximal activity (AC50) under setting [2] was 0.00501 µM [rising, full curve, poor fit] and the AC50 under setting [1] is 35.5 µM [rising, single point]. On to `CCOP(=O)(OCC)C(NC(=O)Nc1ccc(Cl)c(Cl)c1)c1ccccc1` (stereo not given), for which the AC50 under setting [2] is 0.891 µM [falling, full curve, poor fit]. For `C/C(=N\NC(=O)c1ccc(C)cc1C)c1ccc(-n2ccnc2)cc1`, under setting [1], the AC50 is 2 µM [falling, full curve, poor fit]. As for `CCC1CN(C(=O)NCc2ccc(F)cc2)c2cc(C)ccc2O1` (stereo not given), the half-maximal activity concentration (AC50) under setting [1] was 12.6 µM [rising, partial curve]. `Cc1ccccc1N1CCN(C(=S)c2ccc(-c3cccc([N+](=O)[O-])c3)o2)CC1`: the AC50 is, setting by setting: under setting [2], 1.41 µM [rising, partial curve]; under setting [1], 1 µM [rising, full curve]. On to `Cc1cc(C(=O)N/N=C/c2cc(Br)cc(Br)c2OC(=O)c2ccccc2)n[nH]1`, for which the AC50 under setting [2] was 35.5 µM [falling, single point] and the AC50 under setting [1] is 5.01 µM [rising, single point].

On to `CCN(CC)C(=O)c1c([N+](=O)[O-])c(C(C)(C)C)nn1C`, for which the AC50 under setting [2] was 0.01 µM [rising, full curve, poor fit]. Same read-out and setting: then `CCCCNC(=O)CNC(=O)c1cccs1`, with 0.501 µM [falling, single point].

In the case of `Oc1c(Br)cc(Br)cc1C=NCc1ccc(F)cc1`, the half-maximal activity concentration (AC50) under setting [2] is 35.5 µM [falling, single point]. In the case of `COc1ccccc1CNc1cc(-c2ccccc2Cl)ncn1`, the half-maximal activity concentration (AC50) under setting [2] was 11.2 µM [falling, partial curve].

On to `CCOC(=O)CC(=O)CSc1nc2c(sc(=S)n2-c2ccccc2)c(=O)[nH]1`, for which the AC50 under setting [1] is 0.708 µM [falling, partial curve, poor fit]. As to `O=C1ON=C(c2ccc(Cl)cc2)/C1=C/c1ccc(O)cc1`, the AC50 by setting is: under setting [2], 35.5 µM [falling, single point]; under setting [1], 35.5 µM [falling, single point]. On to `CC(C)C1=CC2=CC[C@@H]3[C@](C)(CCC[C@@]3(C)C(=O)O)[C@H]2CC1`, for which the AC50 was 0.0355 µM [rising, full curve, poor fit] under setting [2] and 2 µM [rising, partial curve, poor fit] under setting [1]. For `CCc1ccc(-n2nc(C)c3c(C)cc(=O)n(CC(=O)Nc4cc(Cl)ccc4OC)c32)cc1`, the half-maximal activity concentration (AC50) under setting [2] is 2.82 µM [falling, partial curve, poor fit] and the concentration at half-maximal activity (AC50) under setting [1] is 2.51 µM [falling, partial curve, poor fit]. On to `O=C(Nc1ccc(Cl)cn1)C1CCCN1S(=O)(=O)c1ccc(Cl)cc1` (stereo not given), for which, under setting [1], the AC50 is 17.8 µM [rising, single point]. For the compound `CCN(CC)c1ccc(NC(=S)NC(=O)c2ccco2)cc1`, the AC50 runs as follows: under setting [2], 0.0251 µM [falling, full curve, poor fit]; under setting [1], 0.0224 µM [falling, full curve]. With `Cn1c(=O)c2c(nc(N3CCCCCC3)n2Cc2cccc3ccccc23)n(C)c1=O`, the AC50 reads like this: under setting [2], 12.6 µM [rising, partial curve]; under setting [1], 17.8 µM [rising, partial curve]. As to `COC(=O)c1c(NC(=O)/C=C/C(=O)O)sc(C)c1-c1ccc(C(C)C)cc1`, the AC50 under setting [1] was 35.5 µM [falling, single point]. Consider `CC(=O)Nc1cccc(NC(=O)CSc2nnnn2Cc2ccccc2)c1`, for which the AC50 under setting [2] was 15.8 µM [rising, partial curve, poor fit] and the concentration at half-maximal activity (AC50) under setting [1] is 14.1 µM [rising, partial curve]. Consider `O=C(NCCSCc1ccccc1)c1ccccc1`, for which the AC50 is 8.91 µM [rising, partial curve] under setting [2] and 22.4 µM [rising, single point] under setting [1].

`Cc1cc(C)c(C(=O)Cn2nc(C)c([N+](=O)[O-])c2C)cc1C`: the concentration at half-maximal activity (AC50) under setting [1] is 31.6 µM [rising, partial curve, poor fit].

Turning to `COc1cc(CNc2ccccc2SC)cc(OC)c1OC`, the AC50 is, setting by setting: under setting [2], 14.1 µM [rising, single point]; under setting [1], 17.8 µM [rising, single point].

On to `O=C(CN1CCc2ccccc21)NC(c1ccccc1)c1ccccc1`, for which the AC50 under setting [2] was 11.2 µM [falling, partial curve, poor fit]. Same read-out and setting: the figure for `COc1ccc(OC)c(CN2CCC(CO)(CCOc3ccccc3)CC2)c1` is 5.62 µM [rising, single point]. As to `CCN1CCc2c(sc(-n3cccc3)c2C(C)NC(=O)Nc2ccc(C(=O)OC)cc2)C1` (stereo not given), the half-maximal activity concentration (AC50) runs as follows: under setting [2], 35.5 µM [rising, single point]; under setting [1], 17.8 µM [rising, single point]. Take `Oc1ccc(N2CCN(c3nnnn3-c3ccccc3)CC2)cc1`: the AC50 under setting [2] is 6.31 µM [falling, partial curve, poor fit]. As to `O=C(Nc1cccc(F)c1)c1cnc2sc(N3CCCC3)nn2c1=O`, the AC50 by setting is: under setting [2], 5.62 µM [falling, partial curve, poor fit]; under setting [1], 0.398 µM [falling, full curve, poor fit]. Consider `COC(=O)c1c(C)oc2ccc(N(C(=O)c3ccncc3)S(=O)(=O)c3ccc(Br)cc3)cc12`, for which the half-maximal activity concentration (AC50) runs as follows: under setting [2], 35.5 µM [falling, single point]; under setting [1], 17.8 µM [falling, single point]. On to `S=C(c1cn(CCOc2cccc3ccccc23)c2ccccc12)N1CCCC1`, for which the concentration at half-maximal activity (AC50) is, setting by setting: under setting [2], 7.08 µM [rising, partial curve, poor fit]; under setting [1], 22.4 µM [rising, partial curve]. `CC(C)(C)n1nnnc1C(c1ccccc1F)N(Cc1ccco1)CC1CCCO1` (stereo not given): the concentration at half-maximal activity (AC50) under setting [2] was 11.2 µM [rising, partial curve]. Regarding `CCC(C)(C)n1nnnc1C(c1ccncc1)N1CCN(c2cccc(OC)c2)CC1` (stereo not given), the AC50 under setting [1] was 35.5 µM [rising, single point]. Regarding `COC(=O)Nc1nc2ccc(SC(C)C)cc2[nH]1`, the AC50 by setting is: under setting [2], 2 µM [falling, full curve]; under setting [1], 1.58 µM [falling, full curve, poor fit].
